Results are given in words; binding and its absence hold for the method and conditions named. Some entries that bind do so weakly or less than the wild type.
Target: IGF-I (UniProt P05019)
Test: ligand blot with 125I-IGF-I (weaker than IGF-II)

Sequences of proteins named here, by UniProt entry; tags and fusion partners are left off. Residues count along the entry.
UniProt P05019, residues 49-118: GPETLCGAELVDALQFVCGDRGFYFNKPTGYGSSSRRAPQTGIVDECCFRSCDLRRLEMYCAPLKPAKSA

binding: binds
B1: IGFBP-6 (protein)
chain: RCPGCGQGVQAGCPGGCVEEEDGGSPAEGCAEAEGCLRREGQECGVYTPNCAPGLQCHPPKDDEAPLRALLLGRGRCLPARAPAVAEENPKESKPQAGTARPQDVNRRDQQRNPGTSTTPSQPNSAGVQDTEMGPCRRHLDSVLQQLQTEVYRGAQTLYVPNCDHRGFYRKRQCRSSQGQRRGPCWCVDRMGKSLPGSPDGNGSSSCPTGSSG
